# Some of the results follow.
# Sequences of proteins named here, by UniProt entry; tags and fusion partners are left off.
# UniProt Q0JBA9, entry or part of it: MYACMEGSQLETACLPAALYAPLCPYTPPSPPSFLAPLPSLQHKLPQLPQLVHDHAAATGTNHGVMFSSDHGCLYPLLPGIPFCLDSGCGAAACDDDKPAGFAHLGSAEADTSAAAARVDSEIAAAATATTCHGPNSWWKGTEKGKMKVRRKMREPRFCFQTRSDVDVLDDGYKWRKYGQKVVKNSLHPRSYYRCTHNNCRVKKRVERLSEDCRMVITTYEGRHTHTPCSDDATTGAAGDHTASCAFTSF
# Biological target: OsWRKY34 (Oryza sativa, UniProt Q0JBA9 1-250)
# Test: protein-binding microarray (RPBM); PBS, 2% BSA, 51.3 ng/ul salmon testes DNA, 50 uM zinc acetate, 200 nM TF, 25 C, 1 h; high values mean tight binding
# Details: protein: recombinant; tags: N-terminal polyhistidine and DsRed monomer fusion (pET32a); label: CyDye5-dUTP incorporated in the synthesized complementary strand; 3' TTTTT single-stranded linker to array surface; dsDNA, one strand shown
# Summary of the method: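 A custom Agilent array was converted to double-stranded form by primer extension with Cy5-dUTP and blocked with 2% BSA. Protein at 200 nM in PBS with 2% BSA, salmon testes DNA and 50 µM zinc acetate was applied for 1 h at 25 °C, followed by washing. The proteins were polyhistidine–DsRed N-terminal fusions of transcription factors, expressed in E. coli BL21-CodonPlus and Ni–NTA-purified. The binding signal is per-feature fluorescence intensity (arbitrary units) from an Axon 4000B scanner.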
row,Sequence,binding signal
1,ACTGGTCGAACCTTGGCGGGGAGGGGCCGGCCGGCCTCATCGGAGTCACCTAGTGCAG,8640 fluorescence intensity (a.u.)
2,CACCACATCATCACCACCAAGCCATCGTCGCTGCGCATATCGGAGTCACCTAGTGCAG,10100 fluorescence intensity (a.u.)
3,GAATTCTATGCCCCTGGTTGCATCCTTGCACCGTCTGCAGCGGAGTCACCTAGTGCAG,9150 fluorescence intensity (a.u.)
4,AGCATTCTAGGTCCGGCAATTTTTTTTCCCTCTCGGTTCCCGGAGTCACCTAGTGCAG,8860 fluorescence intensity (a.u.)
5,ATCATCTCATGCCTCTACTGCTGTGGGAGGGACAGTGAACCGGAGTCACCTAGTGCAG,9690 fluorescence intensity (a.u.)
6,TCCATGATTCCCTTCTCGAATCTTCTCACTTTCTTCTGAACGGAGTCACCTAGTGCAG,8830 fluorescence intensity (a.u.)
7,AAGAGGGGATCGATCGCTTTCTTGCTTTCATTTTTTTCCTCGGAGTCACCTAGTGCAG,8800 fluorescence intensity (a.u.)
8,CCGCCGCCGTCATACTCATATCATATCTTCTTCTTCTTCTCGGAGTCACCTAGTGCAG,11900 fluorescence intensity (a.u.)
9,ATGATGATGTGGCATGGTTGCATGTTGAGCTTTAGACTTACGGAGTCACCTAGTGCAG,9990 fluorescence intensity (a.u.)
10,CGAGAGTGGACTAGATATGGCTTGCACCGGTTGGATTATACGGAGTCACCTAGTGCAG,8880 fluorescence intensity (a.u.)
11,TCATGAGTCATCAGTTCGTCGCTTGACTTGTGAGTACTCACGGAGTCACCTAGTGCAG,10700 fluorescence intensity (a.u.)
12,CTTTTTATGAAAATCTCCGACCGTTTTCATTCCATATACACGGAGTCACCTAGTGCAG,8790 fluorescence intensity (a.u.)
13,CTCGCGCGTGCCCGCCTCTGCTGTTCTTTCTCTCGCCCTCCGGAGTCACCTAGTGCAG,11400 fluorescence intensity (a.u.)
14,TCCAATCATTTTCATTCACATTATCACATTATTTTTCATTCGGAGTCACCTAGTGCAG,8070 fluorescence intensity (a.u.)
15,CGTCACTTGTAGTTTTGCAAGAAAGGCCATATGTTTTATTCGGAGTCACCTAGTGCAG,8150 fluorescence intensity (a.u.)
16,CTTCATTTTTCATTTGTTTTTCATTCCTGTAAGATAAAAGCGGAGTCACCTAGTGCAG,8200 fluorescence intensity (a.u.)
17,TTACTAATTTTAATCTTTGCCTAATTTGCTACCCTGACTACGGAGTCACCTAGTGCAG,8190 fluorescence intensity (a.u.)
18,GAGGGAGGGGAGGGATATTTTTATGTAATTGTCACATCATCGGAGTCACCTAGTGCAG,13300 fluorescence intensity (a.u.)
19,AGGTCAAACCCTGAGTTTCCGTGTTCAACTTTGACGGTCCCGGAGTCACCTAGTGCAG,9440 fluorescence intensity (a.u.)
20,GCTGTGGATGGACTCAATGTTTTTGTTCATTGTTTCTCGGCGGAGTCACCTAGTGCAG,8110 fluorescence intensity (a.u.)
21,TCCTCGGCCAATTCCCGACTTTTGCTTTTATTTTCTTCATCGGAGTCACCTAGTGCAG,13000 fluorescence intensity (a.u.)

# Another view of some results above:
row	Sequence	binding signal
16	CTTCATTTTTCATTTGTTTTTCATTCCTGTAAGATAAAAGCGGAGTCACCTAGTGCAG	8200 fluorescence intensity (a.u.)
17	TTACTAATTTTAATCTTTGCCTAATTTGCTACCCTGACTACGGAGTCACCTAGTGCAG	8190 fluorescence intensity (a.u.)
18	GAGGGAGGGGAGGGATATTTTTATGTAATTGTCACATCATCGGAGTCACCTAGTGCAG	13300 fluorescence intensity (a.u.)

# Next part.

row,Sequence,binding signal
1,ACCGAAAGTGAGACGAGCTGCCCAGTTTTCCACACTCCATCGGAGTCACCTAGTGCAG,8730 fluorescence intensity (a.u.)
2,AACCTTTCACCCATCACATCAAATGTTTGAACACATGCATCGGAGTCACCTAGTGCAG,12100 fluorescence intensity (a.u.)
3,TCATGTTGAATCTTCGCGTCTAGAAGCATCCGGCTCCTAACGGAGTCACCTAGTGCAG,8150 fluorescence intensity (a.u.)
4,CCTGCACGCGTCGTCGCCCACATTTTCCCACTTTCCACGGCGGAGTCACCTAGTGCAG,8100 fluorescence intensity (a.u.)
5,AGTAAGTTTTCGCGTCCAACTTTGATCGTCCGTTTTATTTCGGAGTCACCTAGTGCAG,10500 fluorescence intensity (a.u.)
6,GCGCTCGCCTTCCCCTGTTTGTCCATAGTTCCATACACCTCGGAGTCACCTAGTGCAG,8400 fluorescence intensity (a.u.)
7,GCCATGAAACCTCCTTTGCTCACTGCTTTGGAACCATACTCGGAGTCACCTAGTGCAG,9020 fluorescence intensity (a.u.)
8,CAGTTCACATGCTCTTCTCCCACTCTTCCGCCGCGCTATACGGAGTCACCTAGTGCAG,8060 fluorescence intensity (a.u.)
9,CTGTATGTGTATTATTCCTATGTGTTTCCTATAATGTATTCGGAGTCACCTAGTGCAG,8390 fluorescence intensity (a.u.)
10,GATCAGCTCTGTTCCCTCACTTCCCTGCTTATATACACGCCGGAGTCACCTAGTGCAG,8070 fluorescence intensity (a.u.)
11,CTCTTCTCTTCTCTTCTCTTCTCTCTTCTCTCTCCTCTCCCGGAGTCACCTAGTGCAG,8700 fluorescence intensity (a.u.)
12,TCGTCCCTGTCCGTCGCTCGCCTGCTCTCATCCTCTCCCTCGGAGTCACCTAGTGCAG,9940 fluorescence intensity (a.u.)
13,AGACTGAGCACACACCCACACCTGCCACGTGTCCCTGGTTCGGAGTCACCTAGTGCAG,8350 fluorescence intensity (a.u.)
14,TCGCCCCGATTCCAATTCCAATTCCACCACCGATCCATCGCGGAGTCACCTAGTGCAG,8530 fluorescence intensity (a.u.)
15,ACAGTATAATCGACCGATCCATCCATCGATCTCGACTTCTCGGAGTCACCTAGTGCAG,8440 fluorescence intensity (a.u.)
16,TTGTGTTGGTTGGTGGACGCGTCCGCTTTTCTCTTCCTCGCGGAGTCACCTAGTGCAG,9180 fluorescence intensity (a.u.)
17,AATTAGTTAATATTCTGTATGAAGCAGCCCTTAACTTCTTCGGAGTCACCTAGTGCAG,8200 fluorescence intensity (a.u.)
18,GCTTCAATGCATAAACCGAACCGTGTCTCTTCCATTCTCACGGAGTCACCTAGTGCAG,10900 fluorescence intensity (a.u.)
19,TTAATACTAATGTTTTAGCGTGTGGTTTTTTGGTGTACTCCGGAGTCACCTAGTGCAG,10700 fluorescence intensity (a.u.)
20,CTTTTTGTTTAATGTTGCGAATTACCTTGTCGATTTGATTCGGAGTCACCTAGTGCAG,8490 fluorescence intensity (a.u.)
21,GGTTTTCCCTGGATGCCGAGAGGGTTTGGGTGCGCGCCGCCGGAGTCACCTAGTGCAG,8910 fluorescence intensity (a.u.)

# Reference: paper PMC7819943, “Rice protein-binding microarrays: a tool to detect cis-acting elements near promoter regions in rice”
